# Reference: patent US20240317866A1, “Use of Anti-EGFR/Anti-Met Antibody to Treat Gastric or Esophageal Cancer” (Janssen Biotech, Inc., priority 2022, published 2024)
# Where two headings read alike, the source gives them in different places.
# Test system: esophageal cancer (EC) expressing EGFR and/or cMet
# Assay type: in vivo
# Excerpt: Approximately 30 participants with any expression level of EGFR, cMet, or both proteins are enrolled in each of the Phase 2a cohort. […] Additional enrollment in Phase 2a cohorts may be allowed to achieve this minimal enrollment.
# This is an open-label, multicenter, multi-arm Phase 2 interventional study in participants with previously treated advanced or unresectable GC or EC who are 20 years or older (or the legal age of consent in the jurisdiction in which the study is taking place). Japanese participants with gastric/GEJ or EC who express varying degrees of EGFR, cMet, or both as determined by IHC locally or centrally are enrolled in the GC cohort or EC cohort.
# The baseline disease assessments are performed as close as possible to the start of treatment, but no more than 28 days prior to the first dose. Subsequent assessments are performed at 6 weeks (+1 week) after initiation of study treatment administration, then every 6 weeks (±1 week) for the first 12 months and then every 12 weeks (±1 week) until objective radiographic disease progression. Timing for each disease assessment is relative to the first dose of study treatment administration, regardless of dose modifications, and continues until disease progression. Any other site at which new disease is suspected is also imaged.
# The primary efficacy measure is ORR. Objective response rate is defined as the proportion of participants who achieve either CR or PR, determined by investigator assessment using RECIST Version 1.1. Confirmation of investigator-assessed ORR may be performed through IRC in the Phase 2b.
# Disease Control Rate: Disease control rate is defined as the percentage of participants achieving complete or partial response or stable disease for at least 6 weeks as defined by RECIST Version1.1. The DCR and its 95% CI with Clopper-Pearson method are also calculated.
# Next, response to treatment was evaluated. The “All Treated” patient population were patients who received at least 1 dose of study treatment.
substance,measurement,setting,value
amivantamab,Posterior probability (ORR >22.5%),"all treated population, IHC 1+, N=1, beta distribution",0.601
same,Posterior probability (ORR >22.5%),"all treated population, IHC 2+, N=10, beta distribution",0.254
same,Posterior probability (ORR >22.5%),"all treated population, IHC 3+, N=17, beta distribution",0.195
same,Posterior probability (ORR >22.5%),"all treated population, IHC NA, N=2, beta distribution",0.465
same,Posterior probability (ORR >22.5%),"all treated population, Total, N=30, beta distribution",0.059
same,Posterior probability (ORR >22.5%),"response evaluable population, IHC 1+, N=1, beta distribution",0.601
same,Posterior probability (ORR >22.5%),"response evaluable population, IHC 2+, N=10, beta distribution",0.254
same,Posterior probability (ORR >22.5%),"response evaluable population, IHC 3+, N=17, beta distribution",0.195
same,Posterior probability (ORR >22.5%),"response evaluable population, Total, N=28, beta distribution",0.082
